Experimental data taken from the supplement of paper PMC10849652.
Some of the results follow. Residues, ends and D or L forms follow the SMILES beside them. *: point of attachment. Cbz = O=C(OCc1ccccc1)*

Sequences of proteins named here, by UniProt entry; tags and fusion partners are left off. A change or cut given only in a name is not applied to a line headed by its entry.
UniProt Q658P3: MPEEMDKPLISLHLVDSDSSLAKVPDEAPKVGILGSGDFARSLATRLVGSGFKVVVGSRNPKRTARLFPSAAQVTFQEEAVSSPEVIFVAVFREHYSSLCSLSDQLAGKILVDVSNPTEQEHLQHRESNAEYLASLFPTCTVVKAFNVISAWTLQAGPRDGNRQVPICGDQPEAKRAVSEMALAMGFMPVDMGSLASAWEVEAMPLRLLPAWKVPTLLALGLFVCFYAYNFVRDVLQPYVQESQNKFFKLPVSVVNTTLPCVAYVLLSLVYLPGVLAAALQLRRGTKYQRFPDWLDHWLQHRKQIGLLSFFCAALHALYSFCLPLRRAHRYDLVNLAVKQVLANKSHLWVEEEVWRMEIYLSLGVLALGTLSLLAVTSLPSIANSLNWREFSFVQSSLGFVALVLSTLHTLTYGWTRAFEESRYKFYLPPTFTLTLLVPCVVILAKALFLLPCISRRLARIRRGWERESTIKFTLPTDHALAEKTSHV
UniProt Q9UH36: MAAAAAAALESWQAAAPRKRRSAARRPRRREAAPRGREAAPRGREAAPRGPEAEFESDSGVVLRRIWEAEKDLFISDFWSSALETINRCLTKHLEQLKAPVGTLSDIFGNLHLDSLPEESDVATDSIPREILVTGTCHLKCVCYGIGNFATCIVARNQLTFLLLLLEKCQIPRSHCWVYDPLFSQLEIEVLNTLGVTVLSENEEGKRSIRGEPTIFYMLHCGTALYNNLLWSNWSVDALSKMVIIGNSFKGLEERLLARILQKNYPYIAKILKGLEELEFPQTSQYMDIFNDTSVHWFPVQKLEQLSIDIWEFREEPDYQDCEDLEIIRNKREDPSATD
UniProt Q13247: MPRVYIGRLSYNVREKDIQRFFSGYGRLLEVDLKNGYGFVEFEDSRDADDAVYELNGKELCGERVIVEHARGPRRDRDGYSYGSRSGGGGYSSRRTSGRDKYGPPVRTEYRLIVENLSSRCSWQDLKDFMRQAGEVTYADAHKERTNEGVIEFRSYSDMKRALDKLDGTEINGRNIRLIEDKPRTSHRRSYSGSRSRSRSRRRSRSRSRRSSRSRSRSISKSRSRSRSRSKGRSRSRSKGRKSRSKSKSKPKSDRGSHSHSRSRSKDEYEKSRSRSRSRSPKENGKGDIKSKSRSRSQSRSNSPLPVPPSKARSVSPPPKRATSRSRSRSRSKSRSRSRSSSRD
UniProt O94768: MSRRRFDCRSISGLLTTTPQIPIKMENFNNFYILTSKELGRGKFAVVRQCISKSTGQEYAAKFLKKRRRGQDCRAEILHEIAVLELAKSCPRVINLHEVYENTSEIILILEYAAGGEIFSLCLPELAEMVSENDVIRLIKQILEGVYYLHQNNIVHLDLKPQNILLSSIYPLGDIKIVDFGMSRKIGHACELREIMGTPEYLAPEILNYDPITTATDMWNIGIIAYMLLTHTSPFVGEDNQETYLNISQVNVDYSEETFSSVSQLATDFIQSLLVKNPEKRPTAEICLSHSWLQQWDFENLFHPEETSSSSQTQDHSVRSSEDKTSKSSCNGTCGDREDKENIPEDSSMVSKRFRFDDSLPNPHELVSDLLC
UniProt Q11206: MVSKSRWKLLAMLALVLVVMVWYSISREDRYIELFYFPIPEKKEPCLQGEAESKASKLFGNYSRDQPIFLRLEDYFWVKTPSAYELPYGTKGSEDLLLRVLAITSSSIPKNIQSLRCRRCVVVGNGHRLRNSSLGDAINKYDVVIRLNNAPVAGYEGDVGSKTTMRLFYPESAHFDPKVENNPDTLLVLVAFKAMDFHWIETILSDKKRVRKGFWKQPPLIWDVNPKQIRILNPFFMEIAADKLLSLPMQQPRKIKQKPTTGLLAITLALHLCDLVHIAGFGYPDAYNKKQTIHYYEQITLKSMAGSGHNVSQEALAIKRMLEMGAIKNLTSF
UniProt Q8N5C6: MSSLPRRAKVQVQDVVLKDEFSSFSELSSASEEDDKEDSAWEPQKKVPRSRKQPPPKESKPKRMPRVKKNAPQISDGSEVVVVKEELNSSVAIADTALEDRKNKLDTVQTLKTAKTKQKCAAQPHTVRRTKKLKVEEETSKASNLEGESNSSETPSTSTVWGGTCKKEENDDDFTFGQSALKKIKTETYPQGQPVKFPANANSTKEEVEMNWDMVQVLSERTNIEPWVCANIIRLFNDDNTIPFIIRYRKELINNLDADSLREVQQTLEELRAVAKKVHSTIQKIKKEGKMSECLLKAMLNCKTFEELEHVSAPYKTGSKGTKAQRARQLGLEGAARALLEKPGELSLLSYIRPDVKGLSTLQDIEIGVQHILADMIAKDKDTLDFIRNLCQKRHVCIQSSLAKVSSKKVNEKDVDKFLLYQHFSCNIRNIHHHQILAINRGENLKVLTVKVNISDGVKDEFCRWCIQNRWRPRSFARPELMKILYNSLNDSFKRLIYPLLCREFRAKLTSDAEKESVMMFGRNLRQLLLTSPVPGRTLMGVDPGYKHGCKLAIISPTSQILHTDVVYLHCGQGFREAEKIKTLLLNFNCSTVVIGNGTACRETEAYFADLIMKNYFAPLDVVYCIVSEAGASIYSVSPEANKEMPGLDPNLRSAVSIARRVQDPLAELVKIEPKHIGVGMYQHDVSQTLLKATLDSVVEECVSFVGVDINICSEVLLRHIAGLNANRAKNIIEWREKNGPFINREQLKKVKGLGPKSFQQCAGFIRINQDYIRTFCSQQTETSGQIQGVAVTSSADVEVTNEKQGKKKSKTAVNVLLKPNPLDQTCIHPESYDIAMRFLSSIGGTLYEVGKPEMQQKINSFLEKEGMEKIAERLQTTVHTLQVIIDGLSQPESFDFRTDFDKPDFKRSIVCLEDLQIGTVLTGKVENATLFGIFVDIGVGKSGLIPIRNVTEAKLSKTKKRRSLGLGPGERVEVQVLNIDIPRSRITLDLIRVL
UniProt Q9Y365: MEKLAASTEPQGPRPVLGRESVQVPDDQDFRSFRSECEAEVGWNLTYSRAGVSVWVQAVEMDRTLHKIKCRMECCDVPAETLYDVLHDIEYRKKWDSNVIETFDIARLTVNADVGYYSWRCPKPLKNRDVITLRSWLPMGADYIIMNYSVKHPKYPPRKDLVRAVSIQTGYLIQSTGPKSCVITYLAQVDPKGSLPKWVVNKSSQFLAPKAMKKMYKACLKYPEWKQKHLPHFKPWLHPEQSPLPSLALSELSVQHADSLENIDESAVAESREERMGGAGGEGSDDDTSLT
UniProt Q7Z699: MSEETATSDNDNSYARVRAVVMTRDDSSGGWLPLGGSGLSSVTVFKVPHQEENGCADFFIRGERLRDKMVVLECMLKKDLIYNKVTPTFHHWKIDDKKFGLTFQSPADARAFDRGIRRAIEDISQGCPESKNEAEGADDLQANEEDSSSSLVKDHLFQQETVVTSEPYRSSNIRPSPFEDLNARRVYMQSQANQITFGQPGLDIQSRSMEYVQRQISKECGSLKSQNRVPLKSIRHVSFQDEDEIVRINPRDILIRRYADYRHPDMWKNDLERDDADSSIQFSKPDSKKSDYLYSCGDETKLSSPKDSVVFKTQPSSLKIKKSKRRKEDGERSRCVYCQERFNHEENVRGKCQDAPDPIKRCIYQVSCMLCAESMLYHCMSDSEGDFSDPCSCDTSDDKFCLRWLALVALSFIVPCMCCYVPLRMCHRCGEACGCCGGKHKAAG
UniProt Q7Z698: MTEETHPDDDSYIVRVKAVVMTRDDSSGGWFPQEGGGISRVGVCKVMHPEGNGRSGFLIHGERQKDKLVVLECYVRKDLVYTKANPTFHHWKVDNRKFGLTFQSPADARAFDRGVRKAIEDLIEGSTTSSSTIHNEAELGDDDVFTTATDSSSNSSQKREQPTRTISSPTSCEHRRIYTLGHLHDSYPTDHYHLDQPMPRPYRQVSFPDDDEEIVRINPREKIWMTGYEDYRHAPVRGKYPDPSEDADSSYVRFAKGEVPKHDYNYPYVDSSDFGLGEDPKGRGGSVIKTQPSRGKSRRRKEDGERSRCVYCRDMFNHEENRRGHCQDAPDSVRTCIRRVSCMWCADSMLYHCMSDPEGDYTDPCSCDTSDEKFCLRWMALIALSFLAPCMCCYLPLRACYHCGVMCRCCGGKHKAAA
UniProt Q8N9Q2: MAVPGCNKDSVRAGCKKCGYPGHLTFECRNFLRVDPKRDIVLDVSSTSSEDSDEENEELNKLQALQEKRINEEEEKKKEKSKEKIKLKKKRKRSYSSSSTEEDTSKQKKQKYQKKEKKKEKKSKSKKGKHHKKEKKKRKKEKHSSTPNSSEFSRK
UniProt P35325: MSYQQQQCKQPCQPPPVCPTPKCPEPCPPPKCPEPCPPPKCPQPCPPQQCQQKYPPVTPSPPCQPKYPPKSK
UniProt P43308: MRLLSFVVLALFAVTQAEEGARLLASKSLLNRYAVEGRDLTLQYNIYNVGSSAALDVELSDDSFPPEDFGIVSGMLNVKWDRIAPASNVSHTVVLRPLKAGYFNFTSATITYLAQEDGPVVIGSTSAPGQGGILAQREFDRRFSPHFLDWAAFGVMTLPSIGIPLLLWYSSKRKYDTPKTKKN
UniProt Q9P246, whole entry, looked up: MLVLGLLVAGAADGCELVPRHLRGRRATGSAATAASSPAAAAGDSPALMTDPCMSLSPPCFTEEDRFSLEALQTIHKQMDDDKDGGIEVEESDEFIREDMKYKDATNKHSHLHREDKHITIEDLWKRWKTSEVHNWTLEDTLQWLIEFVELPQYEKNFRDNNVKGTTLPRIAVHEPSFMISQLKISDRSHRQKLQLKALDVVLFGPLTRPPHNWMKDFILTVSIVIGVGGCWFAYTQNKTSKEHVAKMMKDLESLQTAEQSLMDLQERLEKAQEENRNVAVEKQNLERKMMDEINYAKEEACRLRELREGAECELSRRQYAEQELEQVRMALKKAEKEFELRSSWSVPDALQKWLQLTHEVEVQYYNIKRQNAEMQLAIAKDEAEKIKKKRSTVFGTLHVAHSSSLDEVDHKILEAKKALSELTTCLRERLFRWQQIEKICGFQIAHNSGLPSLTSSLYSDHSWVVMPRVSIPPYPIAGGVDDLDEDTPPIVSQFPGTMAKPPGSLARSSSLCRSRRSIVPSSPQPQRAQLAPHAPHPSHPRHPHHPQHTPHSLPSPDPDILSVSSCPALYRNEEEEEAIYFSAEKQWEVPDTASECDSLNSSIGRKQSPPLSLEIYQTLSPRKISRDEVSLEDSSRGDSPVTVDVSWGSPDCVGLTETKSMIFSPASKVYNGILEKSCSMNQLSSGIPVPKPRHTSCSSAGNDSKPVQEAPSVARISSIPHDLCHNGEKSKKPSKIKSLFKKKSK
UniProt Q68D10: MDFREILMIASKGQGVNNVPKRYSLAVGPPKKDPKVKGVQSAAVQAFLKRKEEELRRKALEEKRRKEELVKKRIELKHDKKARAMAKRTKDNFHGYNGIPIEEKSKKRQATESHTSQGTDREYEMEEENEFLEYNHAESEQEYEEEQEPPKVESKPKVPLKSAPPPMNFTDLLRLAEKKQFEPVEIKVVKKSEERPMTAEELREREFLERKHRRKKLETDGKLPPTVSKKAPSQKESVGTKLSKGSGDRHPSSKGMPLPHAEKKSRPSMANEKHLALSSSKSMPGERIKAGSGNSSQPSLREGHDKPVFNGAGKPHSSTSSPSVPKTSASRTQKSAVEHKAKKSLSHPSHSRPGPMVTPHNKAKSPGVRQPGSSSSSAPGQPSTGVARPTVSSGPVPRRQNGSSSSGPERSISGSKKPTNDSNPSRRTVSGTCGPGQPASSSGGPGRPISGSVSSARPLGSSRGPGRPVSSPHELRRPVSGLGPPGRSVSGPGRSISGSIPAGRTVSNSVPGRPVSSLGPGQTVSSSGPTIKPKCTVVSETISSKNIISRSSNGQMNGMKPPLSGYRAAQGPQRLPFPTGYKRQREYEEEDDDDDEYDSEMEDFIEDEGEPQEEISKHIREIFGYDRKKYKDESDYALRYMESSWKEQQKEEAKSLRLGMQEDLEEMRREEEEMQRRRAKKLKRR
UniProt Q8WWL2: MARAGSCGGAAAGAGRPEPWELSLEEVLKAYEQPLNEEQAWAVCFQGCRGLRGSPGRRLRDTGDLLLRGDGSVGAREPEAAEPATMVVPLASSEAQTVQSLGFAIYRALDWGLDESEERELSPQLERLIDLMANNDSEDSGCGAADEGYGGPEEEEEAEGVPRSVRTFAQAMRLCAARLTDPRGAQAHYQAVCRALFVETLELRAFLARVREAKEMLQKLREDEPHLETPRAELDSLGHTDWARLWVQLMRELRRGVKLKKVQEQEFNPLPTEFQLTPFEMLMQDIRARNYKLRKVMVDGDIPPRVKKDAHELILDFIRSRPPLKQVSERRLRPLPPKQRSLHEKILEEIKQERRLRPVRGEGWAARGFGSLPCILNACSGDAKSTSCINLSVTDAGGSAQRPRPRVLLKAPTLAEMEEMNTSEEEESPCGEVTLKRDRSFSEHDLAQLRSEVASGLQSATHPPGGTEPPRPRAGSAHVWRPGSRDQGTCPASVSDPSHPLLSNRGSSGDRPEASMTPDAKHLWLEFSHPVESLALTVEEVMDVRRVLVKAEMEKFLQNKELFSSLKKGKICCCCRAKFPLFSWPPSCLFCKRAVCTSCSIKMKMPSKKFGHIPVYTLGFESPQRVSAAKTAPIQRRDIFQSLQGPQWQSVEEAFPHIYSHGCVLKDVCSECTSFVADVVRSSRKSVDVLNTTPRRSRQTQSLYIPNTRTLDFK

Assays:
Assay in all cases: log2 fold change, soluble protein after heating vs DMSO (PISA); higher = thermal stabilisation; K562 cells, 10 uM, 30 min; active = over 0.2 and 3.5 SD of the protein, either way, in both replicates (recomputed)
IRAK-1-4 Inhibitor I = compound: C1COCCN1CCN2C3=CC=CC=C3N=C2NC(=O)C4=CC(=CC=C4)[N+](=O)[O-] [IRAK-1-4 Inhibitor I]
Method in brief: (§1)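 K562 cells at 2×10^6 cells/mL were treated for 30 min with 10 μM compound, and aliquots were heated for 3 min over 48°C-58°C before pooling. Extraction used PBS with 0.5% NP-40 at 4°C, and soluble protein was the supernatant after 21,000xg for 90 min, measured by TMTpro 16plex LC-MS/MS with channel sums equalised. Thermal stability values, relative to control samples and from duplicates, are log2 fold changes.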

ibrutinib = compound: C=CC(=O)N1CCC[C@@H](n2nc(-c3ccc(Oc4ccccc4)cc3)c3c(N)ncnc32)C1 [ibrutinib]
Method in brief: as §1

[1] = compound: CC(=O)c1cnc2ccc(-c3cc(Cl)c(O)c(Cl)c3)nc2c1N[C@H]1CC[C@H](CN(C)C)CC1
Method in brief: as §1

ralimetinib = compound: CC(C)(C)Cn1c(N)nc2ccc(-c3[nH]c(C(C)(C)C)nc3-c3ccc(F)cc3)nc21 [ralimetinib]
Method in brief: as §1

[2] = compound: CC(C)(O)CC(=O)NCCn1ccc2ncnc(Nc3ccc(Oc4cccc(C(F)(F)F)c4)c(Cl)c3)c21
Method in brief: as §1

[3] = compound: CC(C)C1=C2N=C(C=C(N2N=C1)NCC3=CC=CC=C3)NCCCCCCN
Method in brief: as §1

[4] = compound: CC(C)C[C@@H](C=O)NC(=O)[C@H](CC(C)C)NC(=O)[C@H](CC(C)C)NC(=O)OCc1ccccc1
Method in brief: as §1

pinometostat = compound: CC(C)N(C[C@H]1O[C@@H](n2cnc3c(N)ncnc32)[C@H](O)[C@@H]1O)[C@H]1C[C@@H](CCc2nc3cc(C(C)(C)C)ccc3[nH]2)C1 [pinometostat]
Method in brief: as §1

[5] = compound: CC1=C(C2=C(C=C1)C(=O)C3=CC=CC=C3N2CCCN)C
Method in brief: as §1

[6] = compound: CC1=C(C(CC(=O)N1)C2=CC=C(C=C2)C(F)(F)F)C(=O)NC3=C(C=C4C(=C3)C=NN4)F
Method in brief: as §1

| Target | log2 fold change (IRAK-1-4 Inhibitor I) | log2 fold change (ibrutinib) | log2 fold change [1] | log2 fold change (ralimetinib) | log2 fold change [2] | log2 fold change [3] | log2 fold change [4] | log2 fold change (pinometostat) | log2 fold change [5] | log2 fold change [6] |
| --- | --- | --- | --- | --- | --- | --- | --- | --- | --- | --- |
| SSR3 isoform 2 (UniProt Q9UNL2) | inactive: 0.158 | inactive: 0.029 | inactive: 0.132 | inactive: 0.06 | inactive: 0.031 | inactive: 0.01 | inactive: -0.049 | inactive: -0.134 | inactive: -0.022 |  |
| STEAP3 isoform 2 (UniProt Q658P3) | inactive: -0.002 | inactive: -0.005 | inactive: -0.067 | inactive: 0.013 | inactive: -0.087 | inactive: -0.011 | inactive: 0.032 | inactive: 0.043 | inactive: 0.044 |  |
| SPECC1 (UniProt Q5M775) | inactive: 0.01 | inactive: -0.068 | inactive: -0.035 | inactive: -0.107 | inactive: 0.025 | inactive: 0.08 | inactive: 0.003 | inactive: -0.25 | inactive: -0.01 |  |
| SRD5A3 (UniProt Q9H8P0) | inactive: 0.104 | inactive: -0.112 | inactive: -0.027 | inactive: -0.446 |  | inactive: -0.424 | inactive: 0.066 | inactive: -0.044 |  | inactive: 0.147 |
| STAU2 (UniProt Q9NUL3) | inactive: -0.104 | inactive: 0.08 | inactive: 0.162 |  | inactive: 0.077 | inactive: -0.177 |  | inactive: 0.138 | inactive: -0.135 |  |
| SPG11 (UniProt Q96JI7) | inactive: -0.027 | inactive: 0.128 | inactive: -0.065 | inactive: -0.151 | inactive: 0.103 | inactive: 0.051 | inactive: 0.405 | inactive: 0.035 | inactive: 0.097 |  |
| SRRD (UniProt Q9UH36) | inactive: -0.066 | inactive: 0.142 | inactive: -0.086 |  | inactive: -0.065 | inactive: -0.222 |  | inactive: -0.089 | inactive: 0.058 | inactive: -0.086 |
| SRSF2 (UniProt Q01130) | inactive: -0.069 | inactive: 0.016 | inactive: -0.073 | inactive: 0.01 | inactive: 0.055 | inactive: 0.03 | inactive: 0.09 | inactive: 0.022 | inactive: -0.02 |  |
| SRPRA (UniProt P08240) | inactive: -0.024 | inactive: 0.015 | inactive: -0.028 | inactive: -0.002 | inactive: -0.058 | inactive: 0.021 | inactive: -0.006 | inactive: -0.001 | active: 0.269 |  |
| SRSF7 (UniProt Q16629) | inactive: -0.112 | inactive: 0.128 | inactive: -0.288 | inactive: 0.098 | inactive: 0.24 | inactive: 0.032 | inactive: 0.084 | inactive: 0.128 | inactive: -0.266 |  |
| SRSF6 (UniProt Q13247) | inactive: -0.082 | inactive: -0.072 | inactive: -0.167 |  | inactive: 0.234 | inactive: -0.086 |  | inactive: 0.116 | inactive: -0.744 |  |
| SPINT1 (UniProt O43278) | inactive: -0.153 |  |  | inactive: -0.174 | inactive: -0.02 | inactive: 0.125 | inactive: -0.041 | inactive: 0.02 |  |  |
| SPIN4 (UniProt Q56A73) | inactive: 0.07 |  |  |  |  | inactive: -0.079 |  | inactive: 0.051 |  |  |
| SQOR (UniProt Q9Y6N5) |  |  |  |  | inactive: 0.231 | inactive: -0.076 |  |  |  |  |
| STC2 (UniProt O76061) |  | inactive: -0.02 |  | inactive: -0.085 |  | inactive: 0.361 | inactive: -0.023 |  |  | inactive: -0.031 |
| STK17B (UniProt O94768) | inactive: -0.12 | inactive: -0.235 |  |  |  | inactive: -0.262 |  | inactive: 0.033 |  |  |
| SSX1 (UniProt Q16384) |  | inactive: 0.14 | inactive: 0.019 |  | inactive: 0.152 |  |  |  |  |  |
| ST3GAL4 isoform 4 (UniProt Q11206) |  | inactive: 0.065 | inactive: 0.01 |  | inactive: 0.047 | inactive: -0.213 |  |  | inactive: 0.071 | inactive: 0.022 |
| SPICE1 (UniProt Q8N0Z3) |  | inactive: 0.199 |  |  |  |  |  |  |  | inactive: 0.121 |
| SPDL1 (UniProt Q96EA4) |  |  |  | inactive: 0.009 |  | inactive: -0.477 | inactive: 0.16 |  | inactive: -0.015 |  |
| SREBF1 isoform 4 (UniProt P36956) | inactive: 0.008 | inactive: 0.025 |  |  | inactive: -0.404 | inactive: -0.077 |  | inactive: -0.088 |  |  |
| STAR (UniProt P49675) |  |  |  | inactive: 0.005 |  |  | inactive: -0.05 |  |  |  |
| SPPL3 (UniProt Q8TCT6) |  |  |  |  |  | inactive: -0.595 |  |  |  |  |
| SREBF2 (UniProt Q12772) | inactive: 0.016 | inactive: -0.007 |  |  | inactive: 0 | inactive: 0.012 |  | inactive: -0.02 |  | inactive: 0.006 |
| SPP2 (UniProt Q13103) |  | inactive: 0.069 | inactive: 0.167 |  | inactive: 0.15 | inactive: 0.18 |  |  | inactive: -0.156 |  |

| Target | log2 fold change (IRAK-1-4 Inhibitor I) | log2 fold change (ibrutinib) | log2 fold change [1] | log2 fold change (ralimetinib) | log2 fold change [2] | log2 fold change [3] | log2 fold change [4] | log2 fold change (pinometostat) | log2 fold change [5] | log2 fold change [6] |
| --- | --- | --- | --- | --- | --- | --- | --- | --- | --- | --- |
| SRGAP1 (UniProt Q7Z6B7) | inactive: 0.011 | inactive: 0.137 |  | inactive: -0.005 | inactive: -0.008 |  | inactive: 0.042 | inactive: 0.087 | inactive: -0.072 | inactive: 0.002 |
| SRBD1 (UniProt Q8N5C6) |  |  |  |  | inactive: 0.088 |  |  |  |  |  |
| STARD10 (UniProt Q9Y365) |  |  |  |  | inactive: -0.327 | inactive: -0.415 |  |  |  |  |
| SRCIN1 (UniProt Q9C0H9) |  | inactive: -0.081 | inactive: -0.169 | inactive: 0.147 |  | inactive: -0.068 | inactive: 0.052 |  |  |  |
| STK16 (UniProt O75716) | inactive: 0.157 |  |  |  | inactive: 0.238 | inactive: -0.298 |  | inactive: -0.183 |  |  |
| SPRED1 (UniProt Q7Z699) |  |  | inactive: -0.177 | inactive: -0.019 | inactive: -0.039 |  | inactive: 0.039 |  |  |  |
| SPATS2 (UniProt Q86XZ4) |  |  |  |  |  | inactive: -0.265 |  |  |  |  |
| SRC isoform 2 (UniProt P12931) | inactive: -0.018 |  | inactive: -0.251 | inactive: -0.136 | inactive: -0.22 | inactive: 0.159 | inactive: 0.05 | inactive: 0.087 | inactive: 0.02 |  |
| SSBP3 (UniProt Q9BWW4) |  | inactive: 0.005 | inactive: -0.162 | inactive: -0.099 | inactive: -0.091 | inactive: 0.098 | inactive: -0.086 |  | inactive: 0.121 | inactive: -0.06 |
| SPEN (UniProt Q96T58) |  | inactive: 0.036 | inactive: 0.1 | inactive: -0.027 | inactive: 0.043 | inactive: 0.091 | inactive: 0.209 |  | inactive: 0.085 | inactive: 0.01 |
| SPRED2 (UniProt Q7Z698) |  |  | inactive: -0.051 |  |  |  |  |  |  |  |
| SREK1IP1 (UniProt Q8N9Q2) |  | inactive: -0.019 | inactive: 0.066 | inactive: -0.036 | inactive: 0.053 | inactive: 0.031 | inactive: 0.089 |  | inactive: 0.086 | inactive: 0.014 |
| SPRR2B (UniProt P35325) |  | inactive: 0.347 |  |  | inactive: -0.168 | inactive: 0.254 |  |  |  | inactive: -0.059 |
| SRCAP (UniProt Q6ZRS2) | active: -0.42 | inactive: 0 |  | inactive: 0.036 |  | inactive: 0.046 | inactive: 0.12 | inactive: 0.037 | inactive: 0.103 |  |
| SSR2 (UniProt P43308) |  |  |  |  |  |  |  |  |  | inactive: 0.283 |
| SPATA33 isoform 2 (UniProt Q96N06) |  | inactive: 0.004 | inactive: 0.026 | inactive: -0.029 |  | inactive: 0.208 | inactive: -0.027 |  | inactive: -0.036 | inactive: -0.095 |
| SPATS2L isoform 3 (UniProt Q9NUQ6) |  |  | inactive: 0.046 |  | inactive: 0.044 |  |  |  |  |  |
| ST3GAL1 (UniProt Q11201) |  |  |  |  | inactive: -0.038 |  |  |  |  |  |
| SSBP2 (UniProt P81877) |  | inactive: 0.081 |  | inactive: -0.027 | inactive: -0.089 |  | inactive: 0.151 |  |  |  |
| STK19 (UniProt P49842) |  |  | inactive: -0.316 | inactive: -0.313 |  |  | inactive: 0.197 |  |  |  |
| STIM2 isoform 2 (UniProt Q9P246) |  |  | inactive: -0.206 |  | inactive: -0.032 | inactive: -0.278 |  |  | inactive: 0.033 | inactive: -0.238 |
| SPTY2D1 (UniProt Q68D10) |  |  |  |  | inactive: 0.134 |  |  |  |  |  |
| SPIRE2 (UniProt Q8WWL2) | inactive: 0.137 | inactive: 0.065 |  | inactive: -0.036 | inactive: 0.406 |  | inactive: -0.185 | inactive: -0.168 | inactive: -0.401 |  |
| SS18 (UniProt Q15532) |  | inactive: -0.1 | inactive: -0.087 | inactive: -0.088 |  | inactive: -0.012 | inactive: -0.136 |  | inactive: 0.304 | inactive: 0.013 |

An excerpt of these results, with bars between the fields:
Target | log2 fold change (IRAK-1-4 Inhibitor I) | log2 fold change (ibrutinib) | log2 fold change [1] | log2 fold change (ralimetinib) | log2 fold change [2] | log2 fold change [3] | log2 fold change [4] | log2 fold change (pinometostat) | log2 fold change [5] | log2 fold change [6]
SPATS2L isoform 3 (UniProt Q9NUQ6) |  |  | inactive: 0.046 |  | inactive: 0.044 |  |  |  |  | 
ST3GAL1 (UniProt Q11201) |  |  |  |  | inactive: -0.038 |  |  |  |  | 
SSBP2 (UniProt P81877) |  | inactive: 0.081 |  | inactive: -0.027 | inactive: -0.089 |  | inactive: 0.151 |  |  | 
